Measurements reported in publication PMC10036544.
Results are given in words; binding and its absence hold for the method and conditions named. In cells and extracts the contact can be indirect. Some results given as binding are weak or reduced against the parent protein; the word gives no strength.

Protein sequences, listed by entry. Tags and fused reporters are not part of them. Residues count along the entry.
UniProt Q8N8S7: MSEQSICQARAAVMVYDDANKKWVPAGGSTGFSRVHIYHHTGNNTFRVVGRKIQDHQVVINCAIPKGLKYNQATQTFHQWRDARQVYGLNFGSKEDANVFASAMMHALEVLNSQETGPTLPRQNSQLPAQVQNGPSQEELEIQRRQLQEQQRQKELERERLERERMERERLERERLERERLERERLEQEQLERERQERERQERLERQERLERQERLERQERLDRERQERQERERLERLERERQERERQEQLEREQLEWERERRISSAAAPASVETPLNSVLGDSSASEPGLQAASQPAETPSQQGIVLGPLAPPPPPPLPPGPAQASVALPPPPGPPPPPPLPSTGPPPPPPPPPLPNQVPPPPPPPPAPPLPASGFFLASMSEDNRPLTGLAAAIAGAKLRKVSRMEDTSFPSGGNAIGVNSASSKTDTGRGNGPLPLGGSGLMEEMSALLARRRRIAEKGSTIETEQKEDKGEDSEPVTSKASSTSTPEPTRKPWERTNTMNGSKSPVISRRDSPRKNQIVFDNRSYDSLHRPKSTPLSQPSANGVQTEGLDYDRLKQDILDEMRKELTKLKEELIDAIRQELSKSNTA
UniProt P02545, residues 1-646: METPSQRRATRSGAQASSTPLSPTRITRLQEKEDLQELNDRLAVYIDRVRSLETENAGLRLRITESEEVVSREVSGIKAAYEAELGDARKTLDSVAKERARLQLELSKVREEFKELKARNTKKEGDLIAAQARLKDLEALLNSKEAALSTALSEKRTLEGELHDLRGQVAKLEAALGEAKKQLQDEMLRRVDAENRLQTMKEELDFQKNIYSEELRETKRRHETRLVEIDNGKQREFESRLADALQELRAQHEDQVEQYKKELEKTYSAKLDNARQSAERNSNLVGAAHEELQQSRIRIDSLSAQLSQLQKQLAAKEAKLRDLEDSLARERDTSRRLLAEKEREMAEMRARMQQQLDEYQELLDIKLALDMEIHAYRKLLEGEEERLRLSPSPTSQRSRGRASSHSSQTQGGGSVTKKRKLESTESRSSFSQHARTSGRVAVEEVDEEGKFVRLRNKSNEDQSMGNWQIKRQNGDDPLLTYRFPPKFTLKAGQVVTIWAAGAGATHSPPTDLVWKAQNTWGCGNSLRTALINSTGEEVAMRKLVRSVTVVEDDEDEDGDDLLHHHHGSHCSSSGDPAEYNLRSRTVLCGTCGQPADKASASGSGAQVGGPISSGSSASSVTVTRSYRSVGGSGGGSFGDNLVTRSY

Molecular target: nesprin-2 (encoded by SYNE2), endogenous (human (endogenous in Met4)) (UniProt Q8WXH0)
Experiment: co-IP; endogenous nesprin-2 immunoprecipitated (anti-nesprin-2, Abcam ab217057, Protein G Dynabeads, overnight, 4 °C) from 1 mg lysate in NETN buffer (100 mM NaCl, 20 mM Tris-HCl pH 7.5, 0.5 mM EDTA, 0.5% NP-40); western blotting; Met4 cells, and for actin, lamin A/C and SUN2 also Met4 Mena^−/− cells (for actin and lamin A/C also Met4 Mena^−/− +Mena11a cells)

| binding | Substance |
| --- | --- |
| binds | Mena (human Enabled homologue, encoded by ENAH) (from UniProt Q8N8S7 1-591) |
| binds | lamin A/C (from UniProt P02545 1-646) |
